At least one read-out could not be matched to a standard name with certainty. At least one compound was matched to its structure with a doubt left. Some entries share one result that the patent states for a list of compounds.
Assay: Boiling stability of micronutrients in water at 100 °C (simulated cooking)
Format: physicochemical
Conditions: for VD recovery after 2-hour boiling in water: individually encapsulated (10% wt) or free form

Compound	VD recovery after 2-hour boiling in water	VD recovery after 2-hour boiling in water (listed as free-form VD)	VCP recovery 30 minutes after boiling condition (free form, 30 minutes)
C=C1CC[C@H](O)C/C1=C/C=C1\CCC[C@]2(C)[C@@H]([C@H](C)CCCC(C)C)CC[C@@H]12 [VD, cholecalcifeol]	less than 10%	less than 5%	
vitamin C palmitate [VCP]			no detectable recovery

From patent publication US20250144032A1, “POLY(BETA-AMINO ESTER) MICROPARTICLES FOR MICRONUTRIENT FORTIFICATION” (Massachusetts Institute of Technology, priority 2021, published 2025)
